Measurements reported in publication doi:10.1101/2024.12.06.627129.

Protein sequences, listed by entry. Tags and fused reporters are not part of them. Lines headed by an entry give the natural chain unless they say otherwise; changes in a name come on top.
UniProt P17629: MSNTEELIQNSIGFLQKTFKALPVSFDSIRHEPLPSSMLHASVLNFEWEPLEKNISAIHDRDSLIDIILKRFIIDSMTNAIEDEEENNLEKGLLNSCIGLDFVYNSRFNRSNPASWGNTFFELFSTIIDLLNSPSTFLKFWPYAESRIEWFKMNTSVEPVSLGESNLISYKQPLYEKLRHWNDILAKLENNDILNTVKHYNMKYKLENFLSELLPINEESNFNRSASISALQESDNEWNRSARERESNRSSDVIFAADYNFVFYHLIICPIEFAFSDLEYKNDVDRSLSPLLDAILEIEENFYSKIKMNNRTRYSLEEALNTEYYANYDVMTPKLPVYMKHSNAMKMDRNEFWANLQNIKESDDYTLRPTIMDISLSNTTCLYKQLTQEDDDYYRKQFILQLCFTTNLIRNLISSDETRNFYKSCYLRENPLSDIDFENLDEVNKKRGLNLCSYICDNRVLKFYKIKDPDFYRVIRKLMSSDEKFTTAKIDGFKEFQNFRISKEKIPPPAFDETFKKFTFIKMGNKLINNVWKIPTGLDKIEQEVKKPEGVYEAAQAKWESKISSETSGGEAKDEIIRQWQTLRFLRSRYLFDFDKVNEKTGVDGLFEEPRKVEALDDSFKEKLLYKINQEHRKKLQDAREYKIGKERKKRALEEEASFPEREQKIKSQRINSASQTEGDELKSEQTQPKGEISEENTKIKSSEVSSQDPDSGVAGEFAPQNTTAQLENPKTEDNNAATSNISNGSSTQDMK
UniProt P53851: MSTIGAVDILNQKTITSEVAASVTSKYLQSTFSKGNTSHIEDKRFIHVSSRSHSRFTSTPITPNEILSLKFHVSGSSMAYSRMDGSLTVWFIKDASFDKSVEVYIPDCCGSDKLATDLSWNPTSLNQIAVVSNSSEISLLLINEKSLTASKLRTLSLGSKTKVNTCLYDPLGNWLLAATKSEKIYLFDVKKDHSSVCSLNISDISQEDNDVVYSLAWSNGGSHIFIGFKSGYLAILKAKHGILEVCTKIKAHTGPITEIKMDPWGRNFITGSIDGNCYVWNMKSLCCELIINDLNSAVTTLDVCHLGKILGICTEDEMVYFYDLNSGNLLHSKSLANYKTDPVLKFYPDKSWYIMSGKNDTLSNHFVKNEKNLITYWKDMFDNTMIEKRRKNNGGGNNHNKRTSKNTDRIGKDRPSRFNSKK

Target: T1, Thp2-TAP (S. cerevisiae) (UniProt O13539)
T1 sequence: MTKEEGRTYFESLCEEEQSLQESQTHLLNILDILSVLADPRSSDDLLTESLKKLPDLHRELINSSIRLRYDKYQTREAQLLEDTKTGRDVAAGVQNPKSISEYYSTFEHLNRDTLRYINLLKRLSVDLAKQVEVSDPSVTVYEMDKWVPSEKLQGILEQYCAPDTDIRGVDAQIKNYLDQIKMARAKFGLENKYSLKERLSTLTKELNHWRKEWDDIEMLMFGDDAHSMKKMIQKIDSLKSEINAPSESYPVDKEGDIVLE
Experiment: co-IP

Substance | binding
Hpr1 (from UniProt P17629) | binds
Tex1-HA (from UniProt P53851) | binds

No constants are given. Whether binding was seen depends on the method and setting. Binding seen in cells or lysates may run through a third protein. Binding can be weak; no strength is given.
